Reference: article PMC9484707
Results are given in words; binding and its absence hold for the method and conditions named. Binding seen in cells or lysates may run through a third protein. Some binding calls cover weakened binding; strength is not graded here.

T1: tumor necrosis factor receptor associated factor (TRAF) 3, overexpressed in HEK293T cells (UniProt Q60803)
T1 sequence: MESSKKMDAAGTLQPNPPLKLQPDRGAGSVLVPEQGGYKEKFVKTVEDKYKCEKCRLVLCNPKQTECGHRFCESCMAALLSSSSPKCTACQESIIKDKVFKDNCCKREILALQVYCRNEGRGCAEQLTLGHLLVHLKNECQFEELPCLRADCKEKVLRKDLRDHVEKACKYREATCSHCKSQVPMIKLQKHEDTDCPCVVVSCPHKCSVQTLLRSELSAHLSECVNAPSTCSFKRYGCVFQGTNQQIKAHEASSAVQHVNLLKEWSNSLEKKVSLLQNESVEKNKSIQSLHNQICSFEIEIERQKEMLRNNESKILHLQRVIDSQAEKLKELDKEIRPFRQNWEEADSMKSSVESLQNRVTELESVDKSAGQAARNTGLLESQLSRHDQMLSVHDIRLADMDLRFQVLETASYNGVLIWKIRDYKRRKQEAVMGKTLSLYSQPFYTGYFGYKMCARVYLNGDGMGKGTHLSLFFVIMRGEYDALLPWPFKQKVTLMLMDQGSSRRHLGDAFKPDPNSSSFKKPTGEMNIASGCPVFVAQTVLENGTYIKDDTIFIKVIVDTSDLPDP

T2: TRAF3, endogenous in MH-S alveolar macrophages (mouse (endogenous in MH-S)) (UniProt Q60803)
T2 sequence: T1 sequence

B1: TRAF2, overexpressed in HEK293T cells (protein, UniProt P39429 1-501)
chain: MAAASVTSPGSLELLQPGFSKTLLGTRLEAKYLCSACKNILRRPFQAQCGHRYCSFCLTSILSSGPQNCAACVYEGLYEEGISILESSSAFPDNAARREVESLPAVCPNDGCTWKGTLKEYESCHEGLCPFLLTECPACKGLVRLSEKEHHTEQECPKRSLSCQHCRAPCSHVDLEVHYEVCPKFPLTCDGCGKKKIPRETFQDHVRACSKCRVLCRFHTVGCSEMVETENLQDHELQRLREHLALLLSSFLEAQASPGTLNQVGPELLQRCQILEQKIATFENIVCVLNREVERVAVTAEACSRQHRLDQDKIEALSNKVQQLERSIGLKDLAMADLEQKVSELEVSTYDGVFIWKISDFTRKRQEAVAGRTPAIFSPAFYTSRYGYKMCLRVYLNGDGTGRGTHLSLFFVVMKGPNDALLQWPFNQKVTLMLLDHNNREHVIDAFRPDVTSSSFQRPVSDMNIASGCPLFCPVSKMEAKNSYVRDDAIFIKAIVDLTGL
B2: TRAF2, endogenous in MH-S alveolar macrophages (protein, UniProt P39429 1-501)
chain: B1 chain

How the values were obtained:
[1] = biological target: T1, tumor necrosis factor receptor associated factor (TRAF) 3, overexpressed in HEK293T cells; experiment: co-IP; HEK293T cells transfected with the indicated plasmids (PEI, 48 h); lysates incubated with the indicated gels at 4 °C overnight, washed three times with cell lysis buffer; immunoblot
[2] = biological target: T2, TRAF3, endogenous in MH-S alveolar macrophages (mouse (endogenous in MH-S)); experiment: co-IP; MH-S macrophages infected with S. aureus strains (MOI = 25) for the indicated times; lysates incubated with the indicated gels at 4 °C overnight; immunoblot

Binder	binding [1]	binding [2]
B1	binds	–
B2	–	binds
